Experimental findings from PubChem BioAssay AID2685 (National Center for Advancing Translational Sciences (NCATS), 2010) are described below.

A word on the AC50: it is the concentration at which the activity in the assay is half-maximal.

Some of the results follow. Shown are side measurements of this screen, not its main read-out; they come without a call. Most of these compounds were active or inconclusive in the main read-out, so they are no random draw. Words in brackets tell the shape of the fitted curve; partial curves, single points and poor fits give uncertain potencies.

This assay in a line: qHTS Assay for Lipid Storage Modulators in Drosophila S3 Cells.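 On cell number change: cells counted by Cell Tracker Red CMTPX staining in the red channel.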 As to conditions: BODIPY lipid droplet fluorescence, 18-24 h; for cell number change: measured here: cell count max response, cells fed with added oleic acid. The essentials:
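Drosophila S3 cells loaded with oleic acid (400 uM, as added) and compounds at several concentrations; lipid droplets imaged by 488-nm laser-scanning cytometry, 500–530 nm intensity and object ratio to cell channel. Percent activity normalized to 20 uM Triacsin C.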
For orientation: In qHTS, concentration-response curves come from the screen itself.

Setting [1] is: measured here: lipid fluorescence (Fed channel) AC50, cells fed with added oleic acid.
Setting [2] is: measured here: cell number channel AC50, cells fed with added oleic acid.

Regarding `O=C(COC(=O)CNC(=O)c1cccc(Br)c1)Nc1nnc(-c2ccccc2)o1`, the cell number change was 11.5%. Further, under setting [1], the concentration at half-maximal activity (AC50) was 23.1 µM [rising, partial curve]. As for `Cc1c(-c2cc(Br)ccc2O)nc2cc3c(cc2c1C)OCO3`, the cell number change was -1.17%. For the same compound, the AC50 under setting [1] is 0.082 µM [rising, full curve, poor fit]. On to `COc1cccc(NC(=O)CN(C)C(=O)c2cc(-c3cccc(Br)c3)nc3ccccc23)c1`, for which the cell number change was 10.4%.

As to `O=C(Oc1ccc(OC(=O)C2CCC2)cc1)C1CCC1`, the cell number change is -56.7%. The concentration at half-maximal activity (AC50) under setting [2] is 25.9 µM [falling, single point]. Besides, under setting [1], the AC50 was 4.61 µM [falling, partial curve, poor fit]. With `COc1cc(/C=N/NC(=O)c2ccncc2)ccc1OCC(=O)Nc1cccc([N+](=O)[O-])c1`, the cell number change was found to be 1.74%. Further, under setting [1], the AC50 was 0.103 µM [rising, full curve, poor fit].

For `CCN1CCN(C(CNC(=O)c2ccc3c(c2)OCO3)c2cccnc2)CC1` (centres undefined), the cell number change is -0.711%. For `Cc1ccc(S(=O)(=O)c2nc(-c3cccs3)oc2SCC(N)=O)cc1`, the cell number change turned out to be 31.6%. Under setting [2], the AC50 was 4.61 µM [rising, partial curve, poor fit]. Consider `CC(=O)Nc1cccc(NC(=O)c2cc(-c3cccnc3)nc3ccc(Cl)cc23)c1`, for which the cell number change is -63.3%. Further, the AC50 under setting [2] was 14.6 µM [falling, partial curve]. Besides, the AC50 under setting [1] is 16.4 µM [falling, partial curve].

In the case of `Cc1cnc(C(=O)Nc2ccc(C(C)C)cc2)cn1`, the cell number change was 105%. In addition, the AC50 under setting [2] is 20.6 µM [rising, single point].

On to `CCOc1ccc(NC(=S)NCCCN2CCOCC2)cc1`, for which the cell number change is -36.9%. The AC50 under setting [2] was 29.1 µM [falling, single point]. Further, the AC50 under setting [1] is 23.1 µM [falling, single point]. Turning to `Cc1ccc(N2CCN(C(=S)c3ccc(N(C)C)cc3)CC2)cc1`, the AC50 under setting [1] is 2.59 µM [rising, partial curve]. On to `CC(C)[C@@H](N)C(=O)N/N=C/c1ccc2nccnc2c1`, for which the cell number change amounted to 49.6%. The AC50 under setting [2] is 16.4 µM [rising, single point]. Further, the AC50 under setting [1] was 29.1 µM [rising, single point]. Turning to `COc1ccc(-c2nnn(CC(=O)NCCc3ccc(OC)c(OC)c3)n2)cc1`, the cell number change is -46.3%. Besides, under setting [2], the AC50 is 2.06 µM [falling, full curve]. In addition, the AC50 under setting [1] was 5.8 µM [falling, partial curve]. In the case of `CCNc1nc(NCC)nc(SCC(C)=O)n1`, the cell number change stood at 19.1%. Also, the AC50 under setting [1] was 23.1 µM [falling, single point].

On to `Cc1ccc(-n2nc3c(c2NC(=O)CC(C)C)CS(=O)(=O)C3)cc1`, for which the cell number change was -0.33%. Under setting [1], the AC50 is 20.6 µM [rising, partial curve].

Regarding `CCOC(=O)c1c(C)n(CCNC(C)=O)c2ccc(OC)cc12`, the cell number change was found to be 11.1%.

With `COc1ccccc1NS(=O)(=O)c1ccc(O)c(C(=O)OCC(=O)N2CCc3ccccc32)c1`, the cell number change amounted to 12.3%. The AC50 under setting [1] is 20.6 µM [rising, partial curve]. As for `O=C(CSc1nnc(-c2ccc(OC(F)F)cc2)o1)NC(=O)NCc1ccco1`, the cell number change is -19.5%. In addition, the AC50 under setting [2] is 2.91 µM [falling, single point]. Further, the AC50 under setting [1] was 4.11 µM [falling, full curve, poor fit]. In the case of `CCOc1ccc(CCNC(=O)COC(=O)CCc2cc(OC)c(OC)c(OC)c2)cc1OCC`, the cell number change is -0.81%. The AC50 under setting [1] is 0.731 µM [falling, full curve, poor fit]. Take `COc1ccc(/C(C)=N/OCC(=O)Nc2nc3ccccc3s2)cc1OC`: the cell number change was 8.38%. On to `CCOC(=O)[C@@H]1[C@H]2COc3cc(OC)ccc3[C@H]2N2C(=O)N(c3ccc(C(F)(F)F)cc3)C(=O)[C@@]12C`, for which the cell number change is 47.9%. For the same compound, under setting [2], the AC50 is 8.2 µM [rising, partial curve, poor fit]. For the same compound, under setting [1], the AC50 was 29.1 µM [rising, single point]. Regarding `CCOc1ccc(/C=N/NC(=O)c2cc3c(OC)cccc3[nH]2)cc1`, the cell number change was -91.9%. Besides, the AC50 under setting [2] was 23.1 µM [falling, partial curve]. Further, the AC50 under setting [1] is 18.4 µM [falling, partial curve].

Consider `O=C(CN(Cc1cccs1)C(=O)CSc1nnc(COc2ccccc2)o1)NC1CCCC1`, for which the cell number change was 6.28%. The AC50 under setting [1] was 6.51 µM [rising, full curve]. In the case of `COc1ccc(CNC(=O)CCC(=O)Nc2ccc(Cl)cc2)cc1`, the cell number change is -8.14%.

As for `CCOC(=O)C1=C(c2ccccc2)NC(SC)=C(C#N)C1c1cccnc1` (centres undefined), the cell number change turned out to be 14.7%. In addition, the AC50 under setting [1] is 0.82 µM [rising, partial curve]. As for `C/C(CC1(O)C(=O)Nc2ccccc21)=N\O` (centres undefined), the AC50 under setting [1] is 0.651 µM [falling, single point]. As to `Cc1c(OCC(=O)NCCCN2CCCC2=O)ccc2c3c(c(=O)oc12)CCC3`, the cell number change is -12.7%. Consider `CCOC(=O)c1ccc(NC(=O)CSc2nnc(CNc3ccc(OC)cc3)n2C)cc1`, for which the cell number change is -15.5%. Consider `Cc1cccc(OC(C)C(=O)Nc2nc(-c3ccncc3)cs2)c1` (centres undefined), for which the cell number change was found to be 83.1%. Besides, the AC50 under setting [2] was 8.2 µM [rising, partial curve]. `Cc1ccc2nc(C)cc(C(=O)OCC(=O)c3ccc(Cl)c([N+](=O)[O-])c3)c2c1`: the cell number change amounted to 34.8%. Besides, under setting [2], the AC50 was 10.3 µM [rising, single point]. Further, the AC50 under setting [1] is 23.1 µM [rising, partial curve].

For `COc1ccccc1C1=NNC(=Nc2cccc(S(=O)(=O)N(C)C)c2)SC1`, under setting [1], the AC50 was 0.731 µM [falling, single point].

With `Cc1ccc(C)c(S(=O)(=O)Nc2cccc(-n3cnnn3)c2)c1`, the cell number change is -10.5%. Moreover, the AC50 under setting [1] was 20.6 µM [falling, partial curve]. Take `COc1ccc(NC(=O)CN(C)C(=O)c2cccc(S(=O)(=O)N3CCN(Cc4ccccc4)CC3)c2)cc1`: the cell number change was 18.4%. In addition, the AC50 under setting [2] is 2.59 µM [rising, single point]. As to `Cc1cc(C)n(C(C)n2nc(C)cc2C)n1`, the cell number change is 11.4%. The AC50 under setting [1] is 18.4 µM [falling, single point]. Turning to `CCOc1ccc(CNC2CCCc3ccccc32)cc1` (centres undefined), the cell number change was found to be 57.1%. The AC50 under setting [2] is 13 µM [rising, single point]. Also, under setting [1], the AC50 is 2.31 µM [rising, single point]. For the compound `Cc1ccc(N2CCN(CC(O)COc3cccc(C)c3)CC2)cc1` (centres undefined), the cell number change was -37%. The AC50 under setting [2] is 29.1 µM [falling, single point]. The AC50 under setting [1] is 29.1 µM [falling, single point]. Consider `C=CCN(CC=C)C(=O)CN1C(=O)NC(c2ccccc2)(c2ccccc2)C1=O`, for which the cell number change is -1.28%. Take `COC(=O)CC(=O)N1CCN(c2ccc(Cl)c(Cl)c2)CC1`: the cell number change was -6.27%. In addition, the AC50 under setting [2] is 0.291 µM [falling, partial curve, poor fit].

As to `CCCn1c(C(C)Nc2nc(-c3ccc(C)cc3)cs2)nc2cc(Cl)c(N3CCCCC3)cc21` (centres undefined), the cell number change turned out to be 20.4%. Besides, under setting [1], the AC50 is 3.26 µM [rising, single point]. Regarding `COc1ccccc1/C=C/C(=O)c1ccccc1`, the cell number change is -63.8%. For the same compound, the AC50 under setting [2] was 25.9 µM [falling, partial curve]. The AC50 under setting [1] was 16.4 µM [falling, partial curve, poor fit].

Consider `COc1ccc(N2C(=O)CSC23C(=O)Nc2ccccc23)cc1OC` (centres undefined), for which the cell number change was -17.9%. The AC50 under setting [1] was 0.411 µM [falling, partial curve]. On to `COc1cccc(-n2nc(-c3ccnn3-c3ccccc3)c(=O)n(C)c2=O)c1`, for which the AC50 reads like this: under setting [2], 3.66 µM [rising, single point]; under setting [1], 2.06 µM [rising, partial curve].

In the case of `Cc1cccc(OCc2nnc(SCC(=O)N3CC(=O)Nc4ccccc43)o2)c1`, the cell number change was determined as 16.6%. For the same compound, the AC50 under setting [1] is 0.146 µM [rising, full curve, poor fit].

As to `O=C1C2CC=CCC2C(=O)N1Cc1ccccc1Cl` (centres undefined), the cell number change came to 7.29%.

Take `Cc1[nH]n(-c2nc(-c3ccccc3)cc(=O)[nH]2)c(=O)c1CCO`: the cell number change came to 2.21%. Take `CC1CC1c1ccc(/C=C(\C#N)C(=O)Nc2ccc(Cl)cc2)o1` (centres undefined): the cell number change is 7.62%. In addition, the AC50 under setting [2] was 3.66 µM [rising, single point]. In addition, the AC50 under setting [1] is 0.058 µM [rising, full curve, poor fit]. With `CC1CC(C)CN(CCCNC(=O)c2ccc3nc(N4CCCCC4)sc3c2)C1` (centres undefined), the cell number change was -8.38%. The AC50 under setting [1] was 1.84 µM [falling, partial curve, poor fit]. `O=C(CSc1nc2ccccc2c(=O)n1-c1ccccc1Cl)NCC1CCCO1` (centres undefined): the cell number change is -9.3%. Turning to `CN1C(=O)c2ccccc2Sc2ccc(C(=O)O)cc21`, the cell number change stood at 61.3%. Moreover, under setting [2], the AC50 is 29.1 µM [rising, single point].

As for `O=C(O)CCC(=O)N1CCc2cc(S(=O)(=O)N3CC=C(c4ccccc4)CC3)ccc21`, the cell number change was determined as 26.9%. Further, under setting [1], the AC50 is 8.2 µM [rising, partial curve, poor fit].

For `C/C=C/C(=O)OCC(=O)Nc1cccc(S(=O)(=O)NC2=NCCCCC2)c1`, the cell number change is -2.8%. For the same compound, the AC50 under setting [1] is 0.366 µM [rising, full curve, poor fit]. For `Cc1cc(C(=O)COc2cccnc2[N+](=O)[O-])c(C)n1Cc1ccco1`, the AC50 under setting [1] is 0.13 µM [rising, single point]. With `COc1ccc(CC(=O)OCC(=O)N2CCCC(C)C2)cc1` (centres undefined), the cell number change amounted to 31%. For the same compound, the AC50 under setting [2] is 32.6 µM [rising, single point]. Consider `CCC(=O)N(Cc1cc(=O)[nH]c2ccccc12)c1cccc(C)c1`, for which the cell number change stood at 32.4%. The AC50 under setting [2] is 8.2 µM [rising, partial curve, poor fit]. Further, under setting [1], the AC50 is 16.4 µM [rising, partial curve]. In the case of `COc1cccc2cc(C(=O)Nc3ccc(S(=O)(=O)NCC4CCCO4)cc3)c(=O)oc12` (centres undefined), the cell number change was 9.06%. Further, the AC50 under setting [1] is 0.231 µM [rising, full curve, poor fit]. For `COc1ccc(CNC(=O)C[C@H]2C(=O)N(CCc3ccccc3)C[C@@H]2Cc2ccccc2)cc1`, the cell number change was 5.69%. In the case of `COc1ccc(CCSc2nnc(C3CCCCC3)n2N)cc1`, the cell number change was 14.5%.

With `CC(OC(=O)c1ccc2ncsc2c1)C(=O)N1CCCC1` (centres undefined), the AC50 under setting [1] is 2.59 µM [rising, single point]. As to `CC(=O)c1ccc(NC(=O)NNS(=O)(=O)c2ccc([N+](=O)[O-])cc2)cc1`, the cell number change is -13.3%. The AC50 under setting [1] was 1.16 µM [falling, full curve].
